Data from PubChem BioAssay AID1347426 (Functional Genomics Laboratory (NCATS/FGL), 2020).
Among all 31,000 sequences or so, about 1,400 (4.5%) were called active.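 The calls were made as follows: active = median seed-adjusted z-score above 1 or below -1; inactive = the rest.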 This is one part of the list.

Assay: Novel Modifiers of Survival Motor Neuron (SMN) Protein: Gene Identification via Genome-wide siRNA Screen;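 also: luminescence tracks full-length SMN protein made from the SMN2 reporter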
Conditions: HEK293T SMN2-luciferase reporter, siRNA knockdown, 72 h; actives lie on both sides
In short: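 Steps: spot 1 pmol siRNA, add Lipofectamine RNAiMax in serum-free DMEM, seed HEK293T SMN2–luciferase reporter cells; incubate 72 h at 37 °C; add ONE-Glo; normalize luminescence to control siRNA, log10, MAD. Candidates: |MAD| > 1.0.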
For GAACUUGACGAGCAGCAGATT against MAP2K2, the median seed-adjusted z-score was inactive: -0.502.
With GGAUGUCUCAUUACACCAUTT against TGFBR3 the median seed-adjusted z-score was inactive: 0.285.
For GCUCAUCAAGGACACCGAATT against PPP1R3F, the median seed-adjusted z-score was inactive: 0.781.
In the case of UGACCUCACCAGACCCUGATT against PTPN5, the median seed-adjusted z-score is reported as inactive: 0.22.
In the case of CAGCCUCUUGUAUACAGUUTT against ACOT12, the median seed-adjusted z-score is reported as inactive: 0.0741.
For GAGCAUCCCUGAAUCCAUATT against GLYATL2, the median seed-adjusted z-score was inactive: -0.947.
In the case of CAUUGAACGCAGUCCCUUUTT against FLNC, the median seed-adjusted z-score is reported as inactive: 0.00217.
In the case of GAGCAUCUUCUAUCCGGUUTT against LMTK2, the median seed-adjusted z-score is reported as inactive: -0.565.
With CACUUUAUCUAUUAUCGGATT against CASD1 the median seed-adjusted z-score was inactive: 0.202.
In the case of GAAUGAAUUCUCUACUCUATT against ERBB3, the median seed-adjusted z-score is reported as inactive: -0.561.
For GUCCGGUGUUUGAACCUGATT against ABHD2, the median seed-adjusted z-score was active: -1.21.
With GGGAGUAUCUGUUAGGAGATT against PRSS35 the median seed-adjusted z-score was inactive: -0.0119.
For GGACGACCUGCUCAAUGUATT against TRIM29, the median seed-adjusted z-score was inactive: 0.331.
With GGUAGUUAUUGUCCAACUATT against FGG the median seed-adjusted z-score was inactive: -0.043.
For GCAUGGGUUUUAUUAUAUATT against CCL11, the median seed-adjusted z-score was inactive: -0.221.
In the case of GGAAUUAACAGCUAACAAUTT against MBTPS1, the median seed-adjusted z-score is reported as inactive: -0.551.
In the case of GCUCUAGCCUUUUUCGACATT against ZNF551, the median seed-adjusted z-score is reported as inactive: -0.171.
For CAGCAGAUCUCUAAGCUGATT against NCOR2, the median seed-adjusted z-score was inactive: -0.305.
With CCUGUCUACUGUUCUAUCATT against PSMA6 the median seed-adjusted z-score was inactive: -0.768.
In the case of CUAUAGCUUUGGAUCGGUATT against HTR1F, the median seed-adjusted z-score is reported as inactive: -0.127.
In the case of GCAUCCUGUUUGUAAAUGATT against DLG4, the median seed-adjusted z-score is reported as inactive: -0.498.
With GGUAAAAGUGGAACUGAAATT against LBP the median seed-adjusted z-score was inactive: -0.207.
For UGGUGUACACUGUUACUCATT against LOC158381, the median seed-adjusted z-score was inactive: 0.
With GGAAUAUACCUUCAUGUCATT against ZNF18 the median seed-adjusted z-score was inactive: -0.27.
In the case of GGAGAGCUCCUGAUGAGGATT against SLC1A7, the median seed-adjusted z-score is reported as inactive: -0.781.
With CGAGGUUUUGGAUUUAUUATT against DAZAP1 the median seed-adjusted z-score was inactive: 0.
For CACCUGUCCUGACGAUUAATT against EPHA3, the median seed-adjusted z-score was inactive: 0.
With AUUCAGAACUCGCUGCUGATT against ITGB1BP3 the median seed-adjusted z-score was inactive: 0.0514.
With CAACUACCCUUUCUCAACATT against PRSS23 the median seed-adjusted z-score was inactive: -0.77.
For CGGUUUAAGUCUAUCCAUUTT against RFNG, the median seed-adjusted z-score was inactive: 0.
With CCAGGCUAAUGAUAUUGGATT against AKAP12 the median seed-adjusted z-score was inactive: -0.104.
For CUGCAGUGCUGAUAAGGAUTT against PRMT2, the median seed-adjusted z-score was inactive: 0.0895.
In the case of CCACGAAGGGAGAACAGUUTT against CTCFL, the median seed-adjusted z-score is reported as inactive: -0.362.
In the case of ACAGGAUUCCAGAAAUGGATT against REG1A, the median seed-adjusted z-score is reported as inactive: 0.596.
For CUGCCGCUAUGAACCACAATT against P2RX6, the median seed-adjusted z-score was inactive: -0.351.
With CAAGGUCACUAUGAAGACATT against BPIL3 the median seed-adjusted z-score was inactive: -0.0506.
With CAAGGAAUUUUUGACAAUUTT against CD244 the median seed-adjusted z-score was inactive: 0.
With GGAUGAACUUUGGUGCGUUTT against TARDBP the median seed-adjusted z-score was inactive: 0.987.
With GAAAUUGCAUUUCAGCAAATT against ZP2 the median seed-adjusted z-score was inactive: 0.0455.
With UGUGCUCAUGGUUCACAAATT against IKZF1 the median seed-adjusted z-score was inactive: -0.298.
For CAACAGUUCCCGAGACUGATT against ZNF777, the median seed-adjusted z-score was inactive: 0.128.
In the case of AACGAAAUCUUGAAAAGCATT against HAND2, the median seed-adjusted z-score is reported as inactive: 0.0864.
With ACAUGAACGCGGCCAAUGUTT against MIF the median seed-adjusted z-score was inactive: 0.214.
In the case of AGAUAAAAGUUGACAGUGATT against ATRX, the median seed-adjusted z-score is reported as inactive: -0.158.
For CACUGACAUUGUGGUGUUATT against HDDC3, the median seed-adjusted z-score was inactive: 0.549.
For GGACUGCGUUGGUGAUGUATT against THBS1, the median seed-adjusted z-score was inactive: -0.847.
For CAUCUUUUCUAGUUGAAAUTT against AK3L1, the median seed-adjusted z-score was inactive: 0.0337.
For CAUUACACCUAACCAACAATT against GCNT3, the median seed-adjusted z-score was inactive: 0.
With CCGCGAAUCCAUGACAAUATT against UGCG the median seed-adjusted z-score was inactive: 0.492.
In the case of GGUUCAUGUUUGCAAUCUUTT against POLR2B, the median seed-adjusted z-score is reported as active: -4.81.
For GCACCUCACCCAUCAAUGATT against RERE, the median seed-adjusted z-score was inactive: 0.129.
In the case of CACCAUUGAUCAGUCAGAATT against TOX4, the median seed-adjusted z-score is reported as inactive: 0.
In the case of CCAGGAGUUUAACCUAGAGTT against GH1, the median seed-adjusted z-score is reported as inactive: -0.394.
For CCUUAGAUAUUGUAUGGGATT against EFCAB6, the median seed-adjusted z-score was inactive: 0.206.
For GGCCUAAGCUAAAUCGAGATT against SKP2, the median seed-adjusted z-score was inactive: -0.126.
With CAGAAGUUUUCACACCUAATT against ZNF141 the median seed-adjusted z-score was inactive: 0.223.
With GCAACAUUUUGGGACUUGATT against TP53I3 the median seed-adjusted z-score was inactive: 0.244.
For GCUGGAUCAUUCAAGCGCATT against CUBN, the median seed-adjusted z-score was inactive: 0.0558.
In the case of GCUCCCUCAUCAACGAACATT against PRSS1, the median seed-adjusted z-score is reported as inactive: -0.0208.
For GACGCGAUGUUCCCACUUATT against PDE9A, the median seed-adjusted z-score was inactive: 0.708.
With CCUUAUAUCUCUACCCGUUTT against STXBP1 the median seed-adjusted z-score was inactive: -0.0496.
With GGACCUGCUUGAAUAUGGATT against GLRX2 the median seed-adjusted z-score was inactive: -0.244.
With GGCUUUCAGUUAUUAUGGUTT against SFRS7 the median seed-adjusted z-score was inactive: 0.44.
In the case of ACGCAAUCGUCGCAAACAATT against GTPBP5, the median seed-adjusted z-score is reported as inactive: 0.0354.
With GCUCAGUCUCUACUCUCAATT against MKL2 the median seed-adjusted z-score was inactive: -0.863.
For CCGAUACGCGAGCCACUAATT against PSMB10, the median seed-adjusted z-score was inactive: 0.00939.
With GAGGCAGUCUUAGAGGAAATT against SPATA21 the median seed-adjusted z-score was active: -1.03.
For UCACGUCACUACUUAAAAATT against ZNF644, the median seed-adjusted z-score was inactive: 0.389.
In the case of CAAGCCCGUUUAAUAGUCATT against KIF14, the median seed-adjusted z-score is reported as inactive: 0.
With GACCCAUACAGAAAGUAGATT against SSR1 the median seed-adjusted z-score was inactive: -0.434.
With AGACAUACAGUGUAGACAATT against ALPPL2 the median seed-adjusted z-score was inactive: 0.331.
In the case of GAGUAGGACAUAUCAGUAATT against GALNTL5, the median seed-adjusted z-score is reported as inactive: -0.363.
In the case of CAGUUGCCUAUAUCCUAUATT against TDRKH, the median seed-adjusted z-score is reported as inactive: -0.434.
For CAGGUGAUGGUGUUCGAUATT against ZFYVE27, the median seed-adjusted z-score was inactive: 0.0439.
For CCUGGAUUAUGAGCUCCUATT against CARD14, the median seed-adjusted z-score was inactive: -0.104.
In the case of GUGACACGCAUGAUCCUCATT against GALR2, the median seed-adjusted z-score is reported as inactive: -0.0832.
In the case of CGUUAUUGAUCCGAAUGAATT against LRRC4C, the median seed-adjusted z-score is reported as inactive: -0.122.
For CACCUCACCUUACAUCAAATT against ZNF133, the median seed-adjusted z-score was inactive: -0.199.
With CAGUGUUAUUAGGUAUAAATT against UCP1 the median seed-adjusted z-score was inactive: -0.0744.
For AAGUGAUUAUUACCCUGAATT against CXCL11, the median seed-adjusted z-score was inactive: -0.135.
With CUGCCGGAAUGGUUCUUUATT against GPR151 the median seed-adjusted z-score was inactive: -0.263.
In the case of GAAUACUUCAAAUUCGAAUTT against LEPR, the median seed-adjusted z-score is reported as inactive: -0.184.
In the case of UCACAGAGUCGUUCACGGATT against RAB40B, the median seed-adjusted z-score is reported as inactive: -0.31.
In the case of GAACAUCAGGUAUAGAACATT against SULT1B1, the median seed-adjusted z-score is reported as inactive: -0.115.
For GAGUGAGAAUUACUAUGAATT against PCDHGC4, the median seed-adjusted z-score was inactive: 0.301.
With GGCUGACCUGUACCACUUUTT against SH3BP1 the median seed-adjusted z-score was inactive: -0.225.
For CAAAACCGAUGGUCAAGUUTT against VCAN, the median seed-adjusted z-score was inactive: 0.0927.
With GCACUGGAGAUAGACCCGATT against KRT82 the median seed-adjusted z-score was inactive: 0.129.
With CACCUCACAUGAUAAGAGATT against RAPGEF4 the median seed-adjusted z-score was inactive: -0.197.
With UCACUGAAAUGAAACUGGUTT against ACBD4 the median seed-adjusted z-score was inactive: -0.363.
With GCUGCUUUCUGGACCCGAATT against PRSS36 the median seed-adjusted z-score was inactive: 0.589.
In the case of CAUGCAACAUAACCUGAUATT against BRCA1, the median seed-adjusted z-score is reported as inactive: -0.0302.
In the case of AGAUCCACCUCAAGCAAAATT against EGR3, the median seed-adjusted z-score is reported as inactive: -0.232.
For GGAAUAUUCAUGUCAAUCATT against LAMA3, the median seed-adjusted z-score was inactive: 0.534.
For CUCCGUAUCAUAGAUGUAATT against PCDHB3, the median seed-adjusted z-score was inactive: 0.304.
With GGAUGAUAUUAACAGGUCATT against USP8 the median seed-adjusted z-score was inactive: 0.743.
In the case of CCACACUUUUGGUCUUUAATT against PGDS, the median seed-adjusted z-score is reported as inactive: 0.02.
With GCAGCGAGUCAGUAACUUUTT against SUPT4H1 the median seed-adjusted z-score was active: -1.01.
With GGUGGUACACCUAACCCUATT against INADL the median seed-adjusted z-score was inactive: 0.53.
In the case of GCGCUAUAGUGUCCGAGCUTT against TIRAP, the median seed-adjusted z-score is reported as inactive: -0.431.
In the case of UCACAUAUCGAAUUACCAATT against MUPCDH, the median seed-adjusted z-score is reported as inactive: -0.329.
For GCUCAUCAACGACAAGGUUTT against NPTX2, the median seed-adjusted z-score was inactive: 0.0558.
In the case of GGCGAAAACGAAGGAAUCUTT against SLC39A5, the median seed-adjusted z-score is reported as inactive: -0.311.
In the case of CCAAGGUCCUGAGGUCUAATT against SIN3A, the median seed-adjusted z-score is reported as inactive: -0.384.
With GGCGCUACCUGUAUCAAUGTT against BGLAP the median seed-adjusted z-score was inactive: -0.488.
In the case of GCCUAAUCAUUCUUGUUAATT against ELTD1, the median seed-adjusted z-score is reported as inactive: 0.387.
With GCAGUACGUGGGUCCCUAUTT against TPO the median seed-adjusted z-score was inactive: 0.894.
